Some results were stated once for a whole list of compounds, not compound by compound.
System: pheochromocytoma PC12 cells
Test: Neurite outgrowth quantitation in PC12 cell system
Assay type: cell-based, rat
Details: PC12 assay, summary in text
Procedure: In order to directly determine the neurotrophic activity of compounds described in this invention, the neurite outgrowth assay was carried out with pheochromocytoma PC12 cells as described by Lyons et al. (1994).
PC12 cells were maintained at 37° C. and 5% CO2 in Dulbecco's modified Eagle's medium (DMEM) supplemented with 10% heat-inactivated horse serum, 5% heat-inactivated fetal bovine serum (FBS), and 1% glutamate.
The cells were then plated at […] in 96 well plates coated with […] rat tail collagen and allowed to attach overnight. The medium was then replaced with DMEM, 2% heat-inactivated horse serum, 1% glutamate, 1–5 ng/ml of NGF (Sigma) and varying concentrations of the compounds of this invention (0.01 nM–10000 nM). The background control culture was administered with […] of NGF alone without compound. Positive control cultures were administered with high concentration of NGF (50 ng/ml). The cells were then incubated at 37° C. at 5% CO2 for 72 hours, fixed with 3% formaldehyde and nerve outgrowth was determined visually on a scale of 0 to 4.

SMILES | Neurite outgrowth over background control cultures (in words) | Neurite outgrowth over background control cultures (in words) (listed as compound 103)
CN(CCc1ccccn1)C(=O)C(Cc1ccccc1)N(C)S(=O)(=O)c1ccc(N)cc1 (stereo in doubt) [Compound 2, (S)-(N-methyl)-2-(methyl-(4-amino-benzenesulfanilamido))-3-phenyl-N-(2-(pyridin-2yl)ethyl) propionamide] | significant increase in neurite outgrowth | 
CN(CCc1ccccn1)C(=O)[C@@H]1CCCCN1S(=O)(=O)c1ccc(N)cc1 [Compound 1, N-(4-aminobenzenesulfonamido)-(S)-piperidine-2-carboxylic acid-2-((N-methyl)-2-pyridylethyl) amide] | significant increase in neurite outgrowth | 
CN(CCCc1cccnc1)C(=O)[C@@H]1CCCCN1S(=O)(=O)c1ccc(N)cc1 [Compound 3] | significant increase in neurite outgrowth | 
CN(C(=O)[C@H](Cc1ccccc1)N(C)S(=O)(=O)c1ccc(N)cc1)C(CCCc1cccnc1)CCCc1cccnc1 [Compound 4, (S)-(N-methyl)-2-(methyl-(4-amino-benzenesulfanilamido))-3-phenyl-N-(4-(pyridin-3-yl)-1-(3-(pyridin-3-yl)propyl)butyl) propionamide] | significant increase in neurite outgrowth | 
CN(C)c1ccc(/N=N\c2ccc(S(=O)(=O)N(C)[C@@H](Cc3ccccc3)C(=O)N(C)C(CCCc3cccnc3)CCCc3cccnc3)cc2)cc1 [Compound 6] | significant increase in neurite outgrowth | 
CN(C)c1cccc2c(S(=O)(=O)N(C)[C@@H](Cc3ccccc3)C(=O)N(C)C(CCCc3cccnc3)CCCc3cccnc3)cccc12 [Compound 7] | significant increase in neurite outgrowth | 
CN(C(=O)[C@H](Cc1ccccc1)N(C)S(=O)(=O)c1ccccc1[N+](=O)[O-])C(CCCc1cccnc1)CCCc1cccnc1 [Compound 8] | significant increase in neurite outgrowth | 
CN(C(=O)[C@H](Cc1ccccc1)N(C)S(=O)(=O)CS(C)(=O)=O)C(CCCc1cccnc1)CCCc1cccnc1 [Compound 11] | significant increase in neurite outgrowth | 
CN(C(=O)[C@H](Cc1ccccc1)N(C)S(=O)(=O)Cc1ccccc1)C(CCCc1cccnc1)CCCc1cccnc1 [Compound 12] | significant increase in neurite outgrowth | 
CN(C(=O)[C@H](Cc1ccccc1)N(C)S(=O)(=O)/C=C/c1ccccc1)C(CCCc1cccnc1)CCCc1cccnc1 [Compound 13] | significant increase in neurite outgrowth | 
CN(C(=O)[C@H](Cc1ccccc1)N(C)S(=O)(=O)c1ccc(F)cc1)C(CCCc1cccnc1)CCCc1cccnc1 [Compound 14] | significant increase in neurite outgrowth | 
CC(=O)Nc1ccc(S(=O)(=O)N(C)[C@@H](Cc2ccccc2)C(=O)N(C)C(CCCc2cccnc2)CCCc2cccnc2)cc1 [Compound 15] | significant increase in neurite outgrowth | 
CN(C(=O)[C@H](Cc1ccccc1)N(C)S(=O)(=O)c1ccc(C#N)cc1)C(CCCc1cccnc1)CCCc1cccnc1 [Compound 16] | significant increase in neurite outgrowth | 
COc1ccc(S(=O)(=O)N(C)[C@@H](Cc2ccccc2)C(=O)N(C)C(CCCc2cccnc2)CCCc2cccnc2)cc1OC [Compound 17] | significant increase in neurite outgrowth | 
COc1ccc(S(=O)(=O)N(C)[C@@H](Cc2ccccc2)C(=O)N(C)C(CCCc2cccnc2)CCCc2cccnc2)cc1 [Compound 18] | significant increase in neurite outgrowth | 
O=C(OCc1ccccc1)C1CCCCN1 (stereo not drawn) [Compound 101] | significant increase in neurite outgrowth | 
O=C(NCc1cccnc1)C1CCCCN1 (stereo not drawn) [Compound 103] |  | significant increase in neurite outgrowth
O=C(NCc1ccncc1)C1CCCCN1 (stereo not drawn) [Compound 104] | significant increase in neurite outgrowth | 
COc1cc(C(=O)CN2CCCCC2C(=O)OC(CCCc2cccnc2)CCCc2cccnc2)cc(OC)c1OC (stereo not drawn) [Compound 105] | significant increase in neurite outgrowth | 
CN(CCc1ccccn1)C(=O)C1CCCCN1 (stereo not drawn) [Compound 106] | significant increase in neurite outgrowth | 
CNC(Cc1ccccc1)C(=O)N(C)CCc1ccccn1 (stereo not drawn) [Compound 107] | significant increase in neurite outgrowth | 
CNC(Cc1ccccc1)C(=O)N(C)CCCc1cccnc1 (stereo not drawn) [Compound 108] | significant increase in neurite outgrowth | 
CNC(Cc1ccccc1)C(=O)N(C)C(CCCc1cccnc1)CCCc1cccnc1 (stereo not drawn) [Compound 109] | significant increase in neurite outgrowth | 
CN(CCCc1cccnc1)C(=O)C1CCCCN1 (stereo not drawn) [Compound 110] | significant increase in neurite outgrowth | 
CN1CCCCC1C(=O)OC(CCCc1ccncc1)CCCc1cccnc1 (stereo not drawn) [Compound 111] | significant increase in neurite outgrowth | 
CC(C)CN1CCCCC1C(=O)OC(CCCc1ccncc1)CCCc1cccnc1 (stereo not drawn) [Compound 112] | significant increase in neurite outgrowth | 
O=C(OC(CCCc1ccncc1)CCCc1cccnc1)C1CCCCN1Cc1ccncc1 (stereo not drawn) [Compound 113] | significant increase in neurite outgrowth | 

Reference: patent US7109215B2, “Compounds possessing neuronal activity” (Vertex Pharmaceuticals Incorporated, priority 1997, dated 2006)
